Values are the deposited “Percent Effect”, in %. How 0% and 100% were set is not recorded. Most values in the screen are low, and negative values occur. Compounds were drawn at random from those tested, without regard to their results. Two or more numbers in one place are separate tests of the same structure; such repeats can differ widely.

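Viability assay of Plasmodium falciparum sporozoites; the read-out is not stated. The concentration is filed as 10 mM, unlikely as a test dose, so the dose is not known. Direction is inferred from retests: higher values go with lower viability. Strong results were mostly tested again. Size under these conditions: about 34,000 compounds, about 280 of them at 50% or above in at least one test.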

compound,effect
Cc1cc(C)n(CC2CCCN2C(=O)c2ccc3[nH]nnc3c2)n1 (configuration not stated),-8.619
CCCN1C(=O)C2(CCCCC2)NC1c1c[nH]nc1-c1cccnc1 (configuration not stated),15.26
CCn1c(N)nc2cc(C(=O)NCCCc3ccccn3)cnc21,-34.13 & -42.02
Cc1ncsc1C(=O)NC1CCN(CCC#N)CC1,8.934
Cc1cc(C)c2nc(CN3CCOCC(O)C3)cc(O)c2c1 (configuration not stated),-13.56
CCN(Cc1cccc(C(=O)Nc2cn(C)nn2)c1)[C@H]1COC[C@@H]1O,-9.091
COCc1noc(CCNC(=O)c2ccc(C3CCCO3)s2)n1 (configuration not stated),14.21 & 23.31 & 41.78
Cc1oc(C(=O)O)cc1S(=O)(=O)Nc1cc(Br)ccc1F,-2.277
COc1ccc(OCc2cc(C(=O)N3CCOCC3)n[nH]2)c(Cl)c1,-22.04
Cc1ncsc1CCC(=O)N1CCCC[C@H](N(C)C)C1,-7.173
CN1CCN(c2ccccc2CNC(=O)CSC(F)(F)F)CC1,2.456
CCCc1nc(CN2CCCC2Cn2cncn2)no1 (configuration not stated),6.515
O=C(c1cnnn1-c1ccccc1)N1CCCC(c2ccn[nH]2)C1 (configuration not stated),-3.223
CC(C)c1nnc(CN2CCCC(c3cc(C(N)=O)[nH]n3)C2)o1 (configuration not stated),-3.187
O=C1CCC2(CCNCC2)CN1Cc1nnc2ccccn12,6.834
Cc1ccc(-c2nc(CNc3ccc(C(N)=O)c(C)c3)cs2)o1,-11.43
Cc1cc(-c2cnn(CCNC(=O)c3snnc3C)c2C2CC2)on1,14.39
O=C(O)COc1ccc(Cl)cc1CN1CCC2(CCNCC2)CC1,-16.07 & -5.07
Cc1cnc(CN(C)C2CCN(CC(=O)N(C)c3nccs3)C2)o1 (configuration not stated),8.47
[H][C@@]12CCCO[C@]1([H])[C@H](N(C)Cc1cccnc1)CN2C(=O)c1ccco1,3.971
COc1ccccc1COCC(O)CN1CCC(c2ccn[nH]2)CC1 (configuration not stated),2.53
OC(CNCCn1cccn1)c1ccc(Br)cc1 (configuration not stated),9.99
COc1ccc(CN(C)C(=O)CCc2c(C)nc(C)[nH]c2=O)cc1OC,-9.63
CCN(C(=O)c1nc2c(s1)CCCN2C)C(C)C,4.366
C1CC(c2nnc(CN3CCCC3c3noc(C4CC4)n3)o2)C1 (configuration not stated),2.949
O=C(CN1CCOC(Cn2cccn2)C1)Nc1nccs1 (configuration not stated),4.094
[H][C@@]12C[C@H](c3nnc(C)o3)O[C@@]1([H])CCN(Cc1cc(C)on1)C2,5.254
COCC1CC2(CCN(Cc3cnn(C)c3)CC2)CN1c1ncccn1.O=C(O)C(F)(F)F.O=C(O)C(F)(F)F (configuration not stated),-8.506
CC(C)N(C)S(=O)(=O)N(C)Cc1cnn(Cc2ccccc2)c1,-16.43
Cc1ccc(N2CCCN(C(=O)c3cn(C)c4ccccc34)CC2)nn1,13.92 & 21.87
COCC(=O)N1CCc2ccccc2C12CCNCC2.Cl,8.319
Cc1nc(CN2C(=O)COC3(CCN(Cc4ccco4)CC3)C2C)cs1.O=C(O)C(F)(F)F (configuration not stated),-5.519
CN(C)c1ccc(C(=O)N2CCN(CC(C)(C)O)CC2)nn1,2.316
Cc1cc(CNc2cc(Cl)ccc2Cl)no1,0.9662
COc1cccc(S(=O)(=O)NC(=O)CCC2CCCO2)c1 (configuration not stated),14.62
Cc1cnn(CC2CCCCN2C(=O)c2cnc3n[nH]c(C)c3c2)c1 (configuration not stated),3.444
O=C(O)C(F)(F)F.O=C(c1ccncc1F)N1Cc2nc(COCC3CC3)oc2C1,-0.2555
Cc1cc(N2CCC(O)CC2)nc(C2CCCN2C)n1 (configuration not stated),5.003
O=C(O)C(F)(F)F.O=C(O)C(F)(F)F.[H][C@]12C[C@@H](C(=O)NC)CO[C@@]1([H])CCN(Cc1ccc3ccccc3n1)C2,-6.854 & -10.87 & 38.17
CCOCCCNC(=O)C1(C)CCC(=O)N1c1ccccc1F (configuration not stated),2.954
Cc1cnn(CC2CCCN2C(=O)c2cn(-c3ccccc3)nc2C)c1 (configuration not stated),20.8
CCN(CC1CCCO1)C(=O)Nc1cc(C(N)=O)ccc1OC (configuration not stated),12.78

Data taken from ChEMBL document CHEMBL3988442, “University of Dundee, Small-Polar-MMV Screening Library” (2021).